Data as given in article doi:10.1101/2022.02.01.475276.
These are yes or no findings as the source states them, for the method shown. Some results given as binding are weak or reduced against the parent protein; the word gives no strength.

Chains of the proteins cited; added tags and fusions are not shown. Residues count along the entry.
UniProt P35869, residues 1-287: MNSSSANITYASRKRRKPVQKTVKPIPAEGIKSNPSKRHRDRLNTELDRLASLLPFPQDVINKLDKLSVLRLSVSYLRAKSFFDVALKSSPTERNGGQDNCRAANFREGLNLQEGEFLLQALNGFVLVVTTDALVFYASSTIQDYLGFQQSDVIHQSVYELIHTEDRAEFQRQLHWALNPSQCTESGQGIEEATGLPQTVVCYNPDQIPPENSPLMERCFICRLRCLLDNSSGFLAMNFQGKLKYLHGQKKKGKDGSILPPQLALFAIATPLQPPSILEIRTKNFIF
UniProt Q61324, residues 1-481: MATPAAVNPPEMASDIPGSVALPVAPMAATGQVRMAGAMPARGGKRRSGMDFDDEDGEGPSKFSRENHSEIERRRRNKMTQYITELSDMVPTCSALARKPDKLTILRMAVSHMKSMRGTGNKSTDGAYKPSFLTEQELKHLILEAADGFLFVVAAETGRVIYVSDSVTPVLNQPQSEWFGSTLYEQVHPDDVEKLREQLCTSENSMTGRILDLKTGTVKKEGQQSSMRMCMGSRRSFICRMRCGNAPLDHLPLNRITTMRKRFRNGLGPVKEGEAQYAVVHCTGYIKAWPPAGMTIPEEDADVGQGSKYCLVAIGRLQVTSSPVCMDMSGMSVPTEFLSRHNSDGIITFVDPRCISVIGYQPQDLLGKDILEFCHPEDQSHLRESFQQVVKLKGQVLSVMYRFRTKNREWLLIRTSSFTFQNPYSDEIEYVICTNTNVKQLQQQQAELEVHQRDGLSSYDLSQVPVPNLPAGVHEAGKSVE
UniProt P27540, residues 1-362: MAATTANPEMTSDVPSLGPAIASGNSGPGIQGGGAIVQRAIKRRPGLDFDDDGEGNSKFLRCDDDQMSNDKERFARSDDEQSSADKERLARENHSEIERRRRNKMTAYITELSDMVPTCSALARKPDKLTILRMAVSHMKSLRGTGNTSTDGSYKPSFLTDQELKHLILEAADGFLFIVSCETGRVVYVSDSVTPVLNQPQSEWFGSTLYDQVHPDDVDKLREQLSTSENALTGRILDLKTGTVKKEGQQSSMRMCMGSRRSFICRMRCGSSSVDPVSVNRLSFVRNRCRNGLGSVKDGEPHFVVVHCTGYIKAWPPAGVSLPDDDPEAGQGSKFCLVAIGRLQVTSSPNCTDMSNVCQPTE

Legend:
[1] = target: T1, Truncated mNPAS4 (1-329) (mouse) (UniProt Q8BGD7); assay: co-purification of co-expressed proteins
T1 sequence: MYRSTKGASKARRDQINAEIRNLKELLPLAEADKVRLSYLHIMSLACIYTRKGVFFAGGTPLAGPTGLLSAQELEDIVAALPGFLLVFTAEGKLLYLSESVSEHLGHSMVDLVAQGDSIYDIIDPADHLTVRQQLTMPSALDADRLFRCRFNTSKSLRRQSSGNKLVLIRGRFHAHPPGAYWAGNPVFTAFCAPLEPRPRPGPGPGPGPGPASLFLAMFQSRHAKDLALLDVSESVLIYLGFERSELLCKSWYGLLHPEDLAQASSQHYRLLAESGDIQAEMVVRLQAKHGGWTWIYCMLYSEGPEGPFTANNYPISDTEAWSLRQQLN

[2] = target: 6xHis-TEV-hAhR(1-287) (human) (UniProt P35869); assay: co-purification of co-expressed proteins

| Substance | binding [1] | binding [2] |
| --- | --- | --- |
| mARNT2 (1-481) (from UniProt Q61324 1-481) (domain or fragment) | binds |  |
| hARNT(1-362) (from UniProt P27540 1-362) (domain or fragment) |  | binds |
